Assay results published in paper PMC7267881.
No constants are given. Whether binding was seen depends on the method and setting. Binding seen in cells or lysates may run through a third protein. Some binding calls cover weakened binding; strength is not graded here. For part of these data: Tags and fused reporters may be left off the sequences shown.

The chains behind the UniProt entries cited, without tags or fusion partners.
UniProt Q9ES70: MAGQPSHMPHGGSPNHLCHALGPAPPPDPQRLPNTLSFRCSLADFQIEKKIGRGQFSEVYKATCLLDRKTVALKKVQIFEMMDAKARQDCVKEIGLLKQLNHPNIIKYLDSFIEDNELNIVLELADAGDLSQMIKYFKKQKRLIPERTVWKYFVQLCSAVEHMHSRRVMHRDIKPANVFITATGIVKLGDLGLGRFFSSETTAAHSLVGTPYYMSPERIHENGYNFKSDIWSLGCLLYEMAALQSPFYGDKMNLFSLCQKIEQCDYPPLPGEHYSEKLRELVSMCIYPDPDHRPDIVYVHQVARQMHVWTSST

Key:
[1] = biological target: T1, glutathione S-transferase (GST)-LNX1 fusion protein (UniProt O70263); assay: pull-down; in vitro GST pulldown with GST-LNX1 fusion protein and Myc-NEK6
T1 sequence: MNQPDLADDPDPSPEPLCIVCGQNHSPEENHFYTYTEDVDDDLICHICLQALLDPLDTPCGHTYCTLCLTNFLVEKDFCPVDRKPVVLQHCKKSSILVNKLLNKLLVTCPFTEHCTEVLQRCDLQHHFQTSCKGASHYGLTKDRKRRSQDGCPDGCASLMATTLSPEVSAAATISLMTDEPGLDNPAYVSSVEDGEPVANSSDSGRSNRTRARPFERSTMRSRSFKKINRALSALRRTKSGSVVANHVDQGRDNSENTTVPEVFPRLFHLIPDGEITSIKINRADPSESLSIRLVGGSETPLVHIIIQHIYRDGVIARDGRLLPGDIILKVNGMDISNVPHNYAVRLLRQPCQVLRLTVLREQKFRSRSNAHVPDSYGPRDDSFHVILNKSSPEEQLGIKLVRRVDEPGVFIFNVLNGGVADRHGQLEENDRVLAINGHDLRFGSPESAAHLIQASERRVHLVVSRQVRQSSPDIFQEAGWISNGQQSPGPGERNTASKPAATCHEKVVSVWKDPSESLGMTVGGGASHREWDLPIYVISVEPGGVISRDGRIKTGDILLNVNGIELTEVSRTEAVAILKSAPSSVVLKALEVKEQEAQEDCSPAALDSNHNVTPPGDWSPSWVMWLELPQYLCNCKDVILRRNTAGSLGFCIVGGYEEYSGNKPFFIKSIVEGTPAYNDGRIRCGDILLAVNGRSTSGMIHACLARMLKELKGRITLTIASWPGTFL

[2] = biological target: Myc-tagged NEK6 (NIMA-related expressed kinase 6) (UniProt Q9ES70); assay: co-IP; HA-LNX1 and Myc-NEK6 cotransfected (RAW 264.7 in the text, HEK-293T in the legend); lysate immunoprecipitated with anti-Myc antibody and protein A/G beads overnight at 4°C; immunoblot
[3] = biological target: NEK6, endogenous (mouse (endogenous in L929, RAW 264.7 and BMDMs)) (UniProt Q9ES70); assay: co-IP; LNX1-deficient cells transfected with HA-tagged LNX1; immunoprecipitation in the presence and absence of LNX1
[4] = biological target: NEK6, endogenous (mouse (endogenous in L929, RAW 264.7 and BMDMs)) (UniProt Q9ES70); assay: co-IP; endogenous proteins in BMDMs from Lnx1 fl/fl and Lnx1 fl/fl Lyz2-Cre mice, stimulated with 10 μg/ml gamma-irradiated M. tuberculosis for 24 h; immunoprecipitation
[5] = biological target: NEK6, endogenous (mouse (endogenous in L929, RAW 264.7 and BMDMs)) (UniProt Q9ES70); assay: co-IP; endogenous proteins in RAW 264.7 cells, stimulated with 10 μg/ml gamma-irradiated M. tuberculosis for 24 h; immunoprecipitation
[6] = biological target: NEK6, endogenous (mouse (endogenous in L929, RAW 264.7 and BMDMs)) (UniProt Q9ES70); assay: co-IP; endogenous proteins in L929 cells transfected with miR-325-3p mimic or inhibitor; lysate immunoprecipitated with anti-NEK6 antibody, LNX1 by immunoblot

How did the binding [1] turn out when “Myc-tagged NEK6 (NIMA-related expressed kinase 6) (from UniProt Q9ES70 1-313) (enzyme)” was run?
Its binding is “binds”.

B1: HA-tagged LNX1 (ligand of numb-protein X 1) (enzyme, UniProt O70263 1-728)
chain: T1 sequence
How did the binding [2] turn out when B1 was run?
Its binding is “binds”.

And the binding [3]?
Its binding is “binds”.

B2: LNX1, endogenous (enzyme, UniProt O70263 1-728)
chain: T1 sequence
With B2 as the molecule, how does the binding [4] read?
The binding was “binds”.

And the binding [5]?
The binding was “binds”.

And the binding [6]?
The binding was “binds”.
